This note sets out measurements from patent US20100158865A1.

Protein sequences, listed by entry. Tags and fused reporters are not part of them. Residues count along the entry.
UniProt P01579, residues 24-161: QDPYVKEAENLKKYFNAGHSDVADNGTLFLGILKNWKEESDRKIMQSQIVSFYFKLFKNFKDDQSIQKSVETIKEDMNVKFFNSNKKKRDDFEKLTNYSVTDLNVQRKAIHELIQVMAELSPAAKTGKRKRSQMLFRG

Results are given in words; binding and its absence hold for the method and conditions named. Some results given as binding are weak or reduced against the parent protein; the word gives no strength.

Assay [1] deals with T1, hIFN-γ receptor (human) (UniProt P15260).
T1 sequence (looked up): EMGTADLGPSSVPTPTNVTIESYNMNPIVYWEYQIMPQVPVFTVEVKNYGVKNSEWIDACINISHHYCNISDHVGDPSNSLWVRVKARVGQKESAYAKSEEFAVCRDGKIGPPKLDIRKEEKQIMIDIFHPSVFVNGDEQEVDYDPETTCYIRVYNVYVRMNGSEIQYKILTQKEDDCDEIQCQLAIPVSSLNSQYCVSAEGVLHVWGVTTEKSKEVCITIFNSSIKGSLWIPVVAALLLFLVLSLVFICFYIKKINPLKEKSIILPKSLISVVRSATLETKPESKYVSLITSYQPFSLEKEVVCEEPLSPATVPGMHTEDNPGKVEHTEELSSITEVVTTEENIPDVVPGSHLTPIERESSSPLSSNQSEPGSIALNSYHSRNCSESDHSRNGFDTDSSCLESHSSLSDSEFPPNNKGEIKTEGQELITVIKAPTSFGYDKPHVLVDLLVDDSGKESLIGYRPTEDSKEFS
The assay is described as follows: competition with intact hIFN-γ on WISH cells, antiviral read-out.

Assay [2] addresses T1, hIFN-γ receptor (human). The assay is described as follows: biological tests, competition with hIFN-γ.

With “truncated human hIFN-γ protein composed of 116 aminoacid residues (from UniProt P01579 24-139) (ligand)”, the binding entry with hIFN-γ receptor (human) [1] and with hIFN-γ receptor (human) [2] was “binds” each time.
As for “hIFN-γ inactivated by irradiation with UV light (photoinactivated hIFN-γ) (from UniProt P01579 24-161) (ligand)”, the binding entry in the assay with hIFN-γ receptor (human) [1] and with hIFN-γ receptor (human) [2] was “binds” throughout.
